Source: PubChem BioAssay AID540276 (National Center for Advancing Translational Sciences (NCATS), 2011)
Several values for one entry are separate records, joined by “and”; a condition that tells them apart may be missing. Equal entries are not always repeated. About 5,400 (1.8%) of roughly 300,000 compounds were called active. The shares of active, inactive and inconclusive entries below differ from those in the screen. Calls follow the shape of the full dose curve; tested in HEK293 cells. A potency beside an inconclusive call is a rough fit, not a confirmed value.

Test: qHTS for inhibitors of binding or entry into cells for Marburg Virus
Details: Marburg virus pseudotyped entry inhibition, cell reporter; series mostly up to 37.8 µM
Potency is read from the fitted curve at half-maximal effect.

SMILES | Potency
O=C(c1ccccc1)N1CCCC(c2nc3c(nnn3Cc3ccc(F)cc3F)c(=O)[nH]2)C1 (stereo not drawn) | inconclusive: 35.5 µM [inhibitor, single point]
Cc1cc(C)c(C(=O)N(C)CC2CCCN(CCc3ccccc3F)C2)o1 (stereo not drawn) | inconclusive: 0.891 µM [inhibitor, full curve, poor fit]
Oc1ccccc1Nc1nc(NCC2CCCO2)c2ccccc2n1 (stereo not drawn) | active: 14.6 µM
COc1cccc(N2CCN(CC(=O)N3CCN(S(=O)(=O)c4ccc(Cl)cc4)CC3)CC2)c1 | inconclusive: 35.5 µM [inhibitor, single point]
CCOCN(C(=O)Cn1cnc2ccccc21)c1c(C)cccc1CC | inactive
CCSc1ncc(Cl)c(C(=O)N(Cc2ccccc2)c2ccc(OC)cc2)n1 | inconclusive: 35.5 µM [inhibitor, single point]
COc1cc(NC(=S)N2CCN(CCO)CC2)cc(OC)c1 | inconclusive: 25.1 µM [activator, single point]
CCOc1cccc(NC(=O)c2sc3nc(-c4ccc(F)cc4)ccc3c2N)c1 | inconclusive: 3.55 µM [inhibitor, single point]
COCC(=O)Nc1ccccc1-c1ccccc1 | inconclusive: 3.16 µM [inhibitor, full curve]
Cc1ccc(NC(=O)CSc2n[nH]c(-c3ccncc3)n2)cc1C | inactive
O=C(c1ccc(C(F)(F)F)cc1)C1CCCN(Cc2cccn2-c2ncccn2)C1 (stereo not drawn) | inconclusive: 17.8 µM [inhibitor, partial curve, poor fit]
CC(C)(C)N(NC(=O)Nc1ccc(Cl)cc1)C(=O)c1ccccc1 | inconclusive: 8.91 µM [inhibitor, partial curve, poor fit]
COCCNC(=O)c1cccc(OC2CCN(Cc3cccc(SC)c3)CC2)c1 | inconclusive: 35.5 µM [inhibitor, single point]
CCOc1ccc(C(C(=O)NC2CCCC2)N(C(=O)c2snc(C(N)=O)c2N)C2CCCC2)cc1 (stereo not drawn) | inconclusive: 35.5 µM [inhibitor, single point]
COc1cccc(/C(O)=C2/C(=O)C(=O)N(CCN3CCOCC3)C2c2cccs2)c1 (stereo not drawn) | inconclusive: 2.82 µM [activator, full curve]
O=C(NNC(=O)c1cccc2ccccc12)c1cccc(Br)c1 | inconclusive: 1.58 µM [inhibitor, partial curve, poor fit]
O=C(CSc1ncn(-c2ccccc2)n1)N1CCc2ccccc21 | inactive
CCOC(=O)C1=C(O)CSC1=Nc1ccccc1 | inactive
COc1ccccc1OCc1nnc(SCC(=O)NCc2ccco2)n1Cc1ccco1 | inactive
COc1ccc(CC(=O)Nn2c(-c3ccccc3)nc3ccccc3c2=O)cc1 | inconclusive: 31.6 µM [activator, single point]
COC(=O)C1=C(C)N(Cc2ccccc2)C(=S)NC1c1cccc(C(F)(F)F)c1 (stereo not drawn) | inactive
CN1CCN(c2ccccc2NC(=O)COc2ccc(C3CCCCC3)cc2)CC1 | inconclusive: 12.6 µM [inhibitor, single point]
Cc1cc(N2CCCCC2)nc(NCc2ccccc2)n1 | active: 3.16 µM

SMILES | Potency
Cc1ncsc1CCSc1nc2ccccc2c(=O)n1C | inconclusive: 10.3 µM [inhibitor, partial curve, poor fit]
CCOc1ccccc1NC(=O)CSc1nnc(CNC(=O)c2cc(OC)c(OC)c(OC)c2)o1 | inactive
CCOc1ccccc1NC(=O)c1cccc(NC(=O)c2ccco2)c1 | inconclusive: 35.5 µM [inhibitor, partial curve, poor fit]
CCCCCCc1c(O)nc(SCCN(C)C)[nH]c1=O | inconclusive: 10 µM [inhibitor, partial curve, poor fit]
Cc1ccccc1CC(=O)Nc1ccc(S(=O)(=O)N2CCN(C)CC2)cc1 | inconclusive: 22.4 µM [activator, single point]
COc1ccc(S(=O)(=O)NCC(=O)O)cc1C(=O)NC1CCCCC1 | inactive
Cc1cc(C)nc(SCC2COc3ccccc3O2)n1 (stereo not drawn) | inactive
COc1ccc(CCNC(=O)CCCn2c(=O)c3ccccc3n(Cc3ccccc3C#N)c2=O)cc1OC | inactive
CCCc1n[nH]c2c1/C(=N/O)CC(c1ccccc1)C2 (stereo not drawn) | inconclusive: 11.2 µM [inhibitor, partial curve, poor fit]
O=C(Cn1ncc2c(=O)oc3ccccc3c21)NCc1cccnc1 | inconclusive: 5.62 µM [inhibitor, single point]
Cc1ccccc1-n1nc(CO)c(C(=O)NCC(c2ccccc2)c2ccccc2)n1 | inactive
CC(C(=O)NC1=NCCS1)N1C(=O)c2ccccc2C1=O (stereo not drawn) | inactive
C=CCC1(CC=C)CCCN1C(=O)c1cc(COc2cccc(C(F)(F)F)c2)on1 | active: 10 µM
COc1ccc(CSc2nc(C)cc(C)c2S(C)(=O)=O)cc1 | inconclusive: 35.5 µM [inhibitor, single point]
O=C(COCc1cc(-c2ccc(F)cc2)on1)Nc1cc(Cl)ccc1O | inactive
NC(=O)N=Nc1c2[nH]c3ccccc3nc-2c2ccccc12 | inconclusive: 3.16 µM [inhibitor, partial curve, poor fit]
Cc1ccc(NC(=O)CNc2ccc(Cl)c(Cl)c2)cc1S(=O)(=O)N(C)C | inconclusive: 15.8 µM [inhibitor, partial curve, poor fit]
CCN(C(=O)COc1ccc(C(=O)c2ccccc2)cc1)c1ccccc1 | inconclusive: 22.4 µM [inhibitor, single point]
Cc1cc(C(=O)COC(=O)c2ccc3c(c2)NC(=O)CS3)c(C)n1CC1CCCO1 (stereo not drawn) | inconclusive: 22.4 µM [inhibitor, single point]
CCNc1nc(NC(C)C)nc(N(C#N)CC(=O)OC)n1 | inconclusive: 6.31 µM [inhibitor, partial curve, poor fit]
O=C(Cc1ccccc1)NC(CSSCC(NC(=O)Cc1ccccc1)C(=O)O)C(=O)O (stereo not drawn) | inconclusive: 14.1 µM [activator, partial curve, poor fit]
Cc1cc(/C=N/n2c(COc3ccccc3)nc3ccccc3c2=O)c(O)c([N+](=O)[O-])c1 | inconclusive: 15.8 µM [inhibitor, single point]
CCOC(=O)c1nc(NNC(C)=O)sc1C | inactive

SMILES | Potency
COc1ccc(N(C(=O)c2snc(C(N)=O)c2N)C(C(=O)NC2CCCCC2)c2ccc(C)o2)c(OC)c1 (stereo not drawn) | inactive
Cc1c(-c2cc(C(=O)O)no2)cnn1C | inactive
COc1ccc(O[C@H]2C=C[C@@H](c3ccccc3)O[C@@H]2COC(=O)CC/C(C)=N/O[C@@H](C)c2cc(-c3c(C)cc(C)cc3C)no2)cc1 | inactive
NC(=O)Cc1ccc(Nc2nnc(-c3ccccc3)c3ccccc23)cc1 | inactive
COc1ccc(CN2CCN(C(=O)c3cccc4ccccc34)CC2)cc1Br | inconclusive: 11.2 µM [inhibitor, partial curve]
CC1CCCCN1S(=O)(=O)c1ccc(S(=O)(=O)N2CCN(C)CC2)cc1 (stereo not drawn) | inactive
O=C1c2ccncc2C(=O)N1CO | inconclusive: 11.2 µM [inhibitor, single point]
CCOC(=O)c1ccc(N2C(=O)c3n[nH]c(-c4cccs4)c3C2c2ccc(CC)cc2)cc1 (stereo not drawn) | inconclusive: 28.2 µM [inhibitor, single point]
O=S(=O)(Nc1ccc(F)c(Cl)c1)c1ccc(Br)s1 | inactive
Cc1ccc(S(=O)(=O)c2nc(S(=O)(=O)c3ccc(C)cc3)c(NCCCOC(C)C)s2)cc1 | inactive
COc1cc(N(C)C)c([N+](=O)[O-])cc1C(=O)NC(C)CNc1ccc([N+](=O)[O-])cc1Cl (stereo not drawn) | inactive
CCC(c1nnnn1CCc1ccccc1)N(Cc1ccco1)Cc1cc2cccc(C)c2[nH]c1=O (stereo not drawn) | inconclusive: 35.5 µM [inhibitor, single point]
CC(CCc1ccccc1)NC(C)C(O)c1ccc(O)cc1 (stereo not drawn) | inactive and inconclusive: 10 µM [inhibitor, partial curve, poor fit] and inconclusive: 29.1 µM [inhibitor, single point]
CC(=O)c1ccccc1C(=O)NCc1cccnc1 | inconclusive: 2 µM [activator, full curve, poor fit]
COc1ccc(-n2cc(-c3ccc4c(c3)OCO4)n(CC(=O)Nc3cccc(C)c3C)c2=O)c(OC)c1 | inconclusive: 35.5 µM [inhibitor, partial curve, poor fit]
CC(C)(C)NC(=O)CN(C(=O)c1snc(C(=O)NC2CCCCC2)c1N)c1ccccc1F | inconclusive: 35.5 µM [inhibitor, single point]
CC(=O)c1c(C)[nH]c(C(=O)NCCc2c[nH]c3ccccc23)c1C | inactive
CC(O)CN(C)CC/C=C1/c2ccccc2CSc2ccccc21 (stereo not drawn) | inconclusive: 29.1 µM [inhibitor, single point]
Cc1cc(=O)oc2cc(NC(=O)C(C)Oc3ccccc3)ccc12 (stereo not drawn) | inconclusive: 1.26 µM [inhibitor, single point]
COc1ccc(/C(C)=N/NC(=O)c2ccccc2OCc2ccccc2)c(OC)c1 | inconclusive: 15.8 µM [inhibitor, single point]
Cn1c(OCc2cccnc2)nc2c1c(=O)n(Cc1ccc(Cl)cc1)c(=O)n2C | inconclusive: 18.3 µM [inhibitor, single point]
Cc1ccc(S(=O)(=O)N(CC(=O)NCCSCc2ccco2)c2cc(C)ccc2C)cc1 | inconclusive: 14.1 µM [inhibitor, partial curve, poor fit]
